# Test results from patent US20220106398A1.
# Numbering of substitutions follows the chain as printed. These are yes or no findings as the source states them, for the method shown. A result given as binding can be weak or reduced; the word gives no strength.
# B1: GITR-Mab-9 scFv (scFv, V domains shown)
# VH: QVQLVQSGAEVKKPGASVKVSCKASGHTFTSQYMHWVRQAPGQGLEWVGVINPNDGSTSYAQKFQGRVTMTRDTSTSTVYMELSSLRSEDTAVYYCARDGAYYYDSSGYYRSSNFDYWGQGTLVTVSS
# VL: DIQMTQSPSSLSASVGDRVTITCQASQDIGNYLNWYQQKPGKAPKLLIYGASNLETGVPSRFSGSGSGTDFTLTISSLQPEDFATYYCQQGYSFPLTFGQGTKVEIK
# B2: GITR-Mab-14 scFv (scFv, V domains shown)
# VH: EVQLLESGGGLVKPGGSLRLSCAASGFRFSVYWMSWVRQAPGKGLEWVSGISGSGGTTYYADSVKGRFTISRDDSKNTLYLQMNSLKTEDTAVYYCARVRRDGYNYNFDYWGQGTLVTVSS
# VL: B1 VL with G30S, Y49F, G50D, N53S, T56A, G91A, Y92N, L96P, K103E
# B3: GITR-Mab-18 scFv (scFv, V domains shown)
# VH: EVQLLESGGGLVKPGGSLRLSCAASGFTFSSYWMSWVRQAPGKGLEWVSGISWNGGTVGYADSVKGRFTISRDDSKNTLYLQMNSLKTEDTAVYYCAKLGIAVKSHWYFDLWGRGTLVTVSS
# VL: DIQMTQSPSSLSASVGDRVTITCRASESISTWLAWYQQKPGKAPKLLIYAASSLQSGVPSRFSGSGSGTDFTLTISSLQPEDFATYYCQQSYTLPLTFGGGTKLEIK
# B4: GITR-Mab-10 scFv (scFv, V domains shown)
# VH: QVQLVQSGAEVKKPGASVKVSCKASGYTFTSNYMHWVRQAPGQGLEWMGWMNPNSGNTAYAQKFQGRVTMTRDTSTSTVYMELSSLRSEDTAVYYCARGRGGQLLFDYWGQGTLVTVSS
# VL: DIQMTQSPSSLSASVGDRVTITCRASQGISSWLAWYQQKPGKAPKLLIYAASTLQSGVPSRFSGSGSGTDFTLTISSLQPEDFATYYCQQYNSYSTFGQGTKVEIK
# B5: GITR-Mab-5 scFv (scFv, V domains shown)
# VH: EVQLLESGGGLVQPGGSLRLSCAASGFTFDAYAMHWVRQAPGKGLEWVSAIGTGGDTYYADSVKGRFTISRDNSKNTLYLQMNSLRAEDTAVYYCARDLYGSGSPQYYYYYGMDVWGQGTTVTVSS
# VL: DIQMTQSPSSLSASVGDRVTITCRASQGIKNDLGWYQQKPGKAPKLLIYAASSLQSGVPSRFSGSGSGTDFTLTISSLQPEDFATYYCQQSYSVPFTFGQGTKVEIK
# B6: GITR-Mab-19 scFv (scFv, V domains shown)
# VH: QVQLVQSGAEVKKPGASVKVSCKASGYTFTSYDINWVRQAPGQGLEWVGIINPSGGSTSYAQKFQGRVTMTRDTSTSTVYMELSSLRSEDTAVYYCARASSGGYYYYYGMDVWGQGTTVTVSS
# VL: B3 VL with E27Q, S28D, S30V, T31N, S91Y, T93S, L94Y, G100Q, K103R
# B7: GITR-Mab-7 scFv (scFv, V domains shown)
# VH: QVQLVQSGAEVKKPGASVKVSCKASGGTSSTYAVTWVRQAPGQGLEWMGVINPNDGSTTYAQNFQGRVTMTRDTSTSTVYMELSSLRSEDTAVYYCARWTPLFGVVIPDYYYYGMDVWGQGTLVTVSS
# VL: B5 VL with R24Q, G28D, K30S, D32Y, G34N, V94T, F96P, K103R, V104L
# B8: GITR-Mab-16 scFv (scFv, V domains shown)
# VH: QVQLVQSGAEVKKPGASVKVSCKASGGTLSSYAISWVRQAPGQGLEWMGWIDPNSGGTNYAQKFQGRVTMTRDTSTSTVYMELSSLRSEDTAVYYCARQGLLWFGESGSIYYYYGMDVWGQGTTVTVSS
# VL: B5 VL with Q27R, G28S, K30S, D32Y, G34N, A50G, V94T, P95L, F96V
# B9: GITR-Mab-22 scFv (scFv, V domains shown)
# VH: QVQLVQSGAEVKKPGASVKVSCKASGGRFSTYALSWVRQAPGQGLEWMGIINPTDGSTTYAQKFQGRVTMTRDTSTSTVYMELSSLRSEDTAVYYCARDVYSSSWYSDYWGQGTLVTVSS
# VL: B5 VL with G28S, K30S, D32W, G34A, S53T, Q100P, E105D
# B10: GITR-Mab-12 scFv (scFv, V domains shown)
# VH: QVQLVQSGAEVKKPGASVKVSCKASGYTFTSYAINWVRQAPGQGLEWMGILSPSGGGTSYAPKFQGRVTMTRDTSTSTVYMELSSLRSEDTAVYYCARGPWYFDLWGRGTLVTVSS
# VL: B5 VL with K30S, D32S, G34A, V94T, Q100P, E105D
# B11: GITR-Mab-23 scFv (scFv, V domains shown)
# VH: EVQLLESGGGLVQPGGSLRLSCAASGFPFSTYAIHWVRQAPGKGLEWVSAISGSGGSTYYADSVKGRFTISRDNSKNTLYLQMNSLRAEDTAVYYCAGPDWYFDLWGRGTLVTVSS
# VL: B5 VL with G28A, K30S, D32S, G34A, S53T, S56R, S91Y, V94T, F96Y, V104L
# B12: GITR-Mab-24 scFv (scFv, V domains shown)
# VH: QVQLVQSGAEVKKPGASVKVSCKASGGTFNNYAINWVRQAPGQGLEWMGTINPRDGDTTYAQKFQGRVTMTRDTSTSTVYMELSSLRSEDTAVYYCARVGYYGSGSYYSYYGMDVWGQGTTVTVSS
# VL: B5 VL with G28N, K30T, D32W, G34A, S91A, V94F, F96W
# B13: GITR-Mab-1 scFv (scFv, V domains shown)
# VH: QVQLVQSGAEVKKPGASVKVSCKASGYTFTNYHLHWVRQAPGQGLEWMGMINPNDGSTTYAQKFQGRVTMTRDTSTSTVYMELSSLRSEDTAVYYCARSTYYYDSSGYYYYYYGMDVWGQGTTVTVSS
# VL: EIVMTQSPATLSVSPGERATLSCRASQSVYSNYLAWYQQKPGQAPRLLIYGASTRATGIPARFSGSGSGTEFTLTISSLQSEDFAVYYCQQYHSYPLTFGGGTKVEIK
# B14: GITR-Mab-3 scFv (scFv, V domains shown)
# VH: QVQLVQSGAEVKKPGASVKVSCKASGYTFTSYDINWVRQAPGQGLEWMGWISGYNGNTNYAQKFQGRVTMTRDTSTSTVYMELSSLRSEDTAVYYCARSHEYYYYYGMDVWGQGTLVTVSS
# VL: B13 VL with Y30S, N32S, H93Y, S94T, Y95T, L97F, G101P, E106D
# Target: cynomolgus monkey His6-GITR (cynomolgus monkey)
# Experiment: ELISA, scFv periplasmic extract on coated His6-GITR
row,binding,Binder
1,binds,B1
2,binds,B2
3,binds,B3
4,binds,B4
5,binds,B5
6,binds,B6
7,binds,B7
8,binds,B8
9,binds,B9
10,binds,B10
11,binds,B11
12,binds,B12
13,binds,B13
14,binds,B14
